Results: article PMC10341401
No constants are given. Whether binding was seen depends on the method and setting. Binding seen in cells or lysates may run through a third protein. Binding can be weak; no strength is given.

Molecular target: T1, ARL6IP5 (in the co-immunoprecipitation with Rab1) (UniProt O75915)
T1 sequence: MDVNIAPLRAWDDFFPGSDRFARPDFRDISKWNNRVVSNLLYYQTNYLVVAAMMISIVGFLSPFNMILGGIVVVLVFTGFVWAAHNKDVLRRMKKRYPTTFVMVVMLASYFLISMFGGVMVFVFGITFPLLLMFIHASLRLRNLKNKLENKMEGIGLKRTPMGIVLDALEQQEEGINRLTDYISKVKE
Assay: co-IP; Rab1 and ARL6IP5 from cell lysate; protein-A agarose beads; which was precipitated and the ARL6IP5 expression condition are not told

binding: binds
Substance: Rab1 (human (endogenous in SH-SY5Y))
